Laboratory results taken from US7358276B2, “2-Oxo-1-pyrrolidine derivatives, processes for preparing them and their uses” (UCB, S.A., priority 2000, dated 2008).
For at least one compound, name, drawing or mass did not settle the structure. Some entries repeat one wording, which the source may state once for all of them.

System: audiogenic seizures in sound-susceptible mice
Test: Animal model of sound-susceptible mice (audiogenic seizures)
Type: in vivo
Settings: intraperitoneally 60 minutes before induction of audiogenic seizures; doses given in mol/kg
Source text: The activity of the compounds of formula I, or their pharmaceutically acceptable salts, as anticonvulsants can be determined in the audiogenic seizures model. The objective of this test is to evaluate the anticonvulsant potential of a compound by means of audiogenic seizures induced in sound-susceptible mice, a genetic animal model with reflex seizures. In this model of primary generalised epilepsy, seizures are evoked without electrical or chemical stimulation and the seizure types are, at least in part, similar in their clinical phenomenology to seizures occurring in man (Löscher W. & Schmidt D., Epilepsy Res. (1998), 2, p. 145-181; Buchhalter J. R., Epilepsia (1993), 34, S31-S41). Results obtained with compounds of formula I are indicative of a strong pharmacological effect.
The objective of this test is to evaluate the anticonvulsant potency of a compound in sound-susceptible mice, a genetic animal model with reflex seizures. In this model of primary generalised epilepsy, seizures are evoked without electrical or chemical stimulation and the seizure types are, at least in part, similar in their clinical phenomenology to seizures occuring in man (Löscher W. & Schmidt D., Epilepsy Res. (1998), 2, 145-181; Buchhalter J. R., Epilepsia (1993), 34, S31-S41).
Male or female genetically sound-sensitive mice (14-28 g; N=10), derived from a DBA strain originally selected by Dr. Lehmann of the Laboratory of Acoustic Physiology (Paris) and bred in the UCB Pharma Sector husbandry unit since 1978, are used. The experimental design consisted of several groups, one group receiving the vehicle control and the other groups different doses of the test-compound. The compounds are administered intraperitoneally 60 minutes before the induction of audiogenic seizures.
For testing, the animals are placed in small cages, one mouse per cage, in a sound-attenuated chamber. After a period of orientation of 30 seconds, the acoustic stimulus (90 dB, 10-20 kHz) is delivered for 30 seconds via loudspeakers positioned above each cage. During this interval, the mice are observed and the presence of the 3 phases of the seizure activity namely wild running, clonic and tonic convulsions, is recorded. The proportion of mice protected against wild running, clonic and tonic convulsions, respectively, is calculated.
For active compounds, an ED50 value, i.e. the dose producing 50% protection relative to the control group, together with 95% confidence limits, was calculated using a Probit Analysis (SAS/STAT® Software, version 6.09, PROBIT procedure) of the proportions of protected mice for each of the 3 phases of the seizure activity.

| SMILES | ED50 (dose producing 50% protection against audiogenic seizures) |
| --- | --- |
| CCC(C(N)=O)N1CC(C=C(C)C)CC1=O (stereo not drawn) [Compound 163, 2-(2-oxo-4-(2,2-dimethylvinyl)-1-pyrrolidinyl)butanamide] | Particularly promising activity |
| CCC(C(N)=O)N1CC(C#CBr)CC1=O (stereo not drawn) [Compound 267, 2-(4-bromo-ethynyl-2-oxo-1-pyrrolidinyl)butanamide] | Particularly promising activity |
| CC[C@@H](C(N)=O)N1CC(COS(=O)(=O)c2ccc(C)cc2)CC1=O (stereo partly drawn) [Compound 31, {1-[(1S)-1-(aminocarbonyl)propyl]-5-oxo-3-pyrrolidinyl}methyl 4-methylbenzenesulfonate] | Particularly promising activity |
| C#CC1CC(=O)N(C(CC)C(N)=O)C1 (stereo not drawn) [Compound 207, 2-(4-ethynyl-2-oxo-1-pyrrolidinyl)butanamide] | Particularly promising activity |
| CC[C@@H](C(N)=O)N1CC(CCl)CC1=O (stereo partly drawn) [Compound 30, (2S)-2-[4-(chloromethyl)-2-oxo-1-pyrrolidinyl]butanamide] | Particularly promising activity |
| CCC(C(N)=O)N1CC(c2cccc(Cl)c2)CC1=O (stereo not drawn) [Compound 204, 2-[4-(3-chlorophenyl)-2-oxo-1-pyrrolidinyl]butanamide] | Particularly promising activity |
| CCC(C(N)=O)N1C[C@H](CC(C)(F)F)CC1=O (stereo partly drawn) [Compound 265, 2-[(4S)-4-(2,2-difluoropropyl)-2-oxopyrrolidinyl]butanamide] | Particularly promising activity |
| CC[C@@H](C(N)=O)N1CC(CC(C)I)CC1=O (stereo partly drawn) [Compound 226, (2S)-2-[4-(2-iodopropyl)-2-oxo-1-pyrrolidinyl]butanamide] | Particularly promising activity |
| CC[C@@H](C(N)=O)N1CC(CO[N+](=O)[O-])CC1=O (stereo partly drawn) [Compound 38, {1-[(1S)-1-(aminocarbonyl)propyl]-5-oxo-3-pyrrolidinyl}methyl Nitrate] | Particularly promising activity |
